Here are results for 63 compounds from PubChem BioAssay AID445 (National Center for Advancing Translational Sciences (NCATS), 2006).

SMILES strings stand for the structures. This is one part of the list. Shown are side measurements of this screen, not its main read-out; they come without a call. Compounds called inactive in the main read-out are mostly missing here. The note in brackets gives the kind of curve behind each potency; many fits are weak.

As a reminder, the AC50 is the concentration giving half of the maximal activity seen.

This assay can be described thus: IkB Signaling. The following applies: ABC-DLBCL IkBa-CBG/CBR dual luciferase ratio (green luciferase fused to IkBa over red control in OCI-Ly3 lymphoma cells), 4 h. The essentials:
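In this assay, an IκBα–CBG68 fusion accumulates when IKK-driven degradation is blocked; native CBR normalizes for cell number. OCI-Ly3 cells were treated 4 h with compound and doxycycline, then green and red light read after Chroma-Glo addition.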

The mark [1] stands for this setting: measured here: control luc red channel unless noted.
The mark [2] stands for this setting: measured here: IkB-luc green channel.
[3] abbreviates: measured here: control luc red channel.

As to `COC(=O)c1[nH]c2cc(C)ccc2c1NC(=O)CN1CCN(c2ccccc2OC)CC1`, the concentration at half-maximal activity (AC50) under setting [1] is 15.8 µM [falling, partial curve].

Consider `COC(=O)C1=C(CN2CCCc3ccccc32)NC(=O)NC1c1ccc(F)cc1` (stereo not given), for which the AC50 under setting [1] was 25.1 µM [falling, partial curve, poor fit].

Consider `CCn1cc(C(=O)NCCc2ccc(OC)c(OC)c2)c(=O)c2cc(S(=O)(=O)N3CCOCC3)ccc21`, for which the concentration at half-maximal activity (AC50) under setting [1] was 2.51 µM [rising, full curve].

As to `CC1CCN(S(=O)(=O)c2ccc3c(ccn3CC(=O)NCc3ccccc3F)c2)CC1`, the AC50 under setting [1] was 5.01 µM [falling, partial curve].

Regarding `COc1cccc(CNC(=O)c2ccc3c(c2)nc2n3CCOC2)c1OC`, under setting [1], the AC50 was 0.00794 µM [rising, full curve, poor fit].

`Cc1cccc(-n2nnc(-c3nc(-c4ccccc4)no3)c2N)c1C`: the AC50 under setting [1] was 1.26 µM [falling, full curve].

As for `O=C(Nc1cccc(C(F)(F)F)c1)c1cc(-c2ccc(Cl)cc2)on1`, the AC50 under setting [1] was 5.01 µM [falling, partial curve].

Turning to `CCc1nc2c(cnn2-c2ccc(C)cc2)c(=O)n1-c1ccc(C)cc1`, under setting [1], the AC50 is 39.8 µM [falling, single point].

As for `Cc1ccc(-c2noc(C(C)NC(=O)c3ccco3)n2)cc1` (stereo not given), the AC50 under setting [1] is 1.58 µM [rising, partial curve, poor fit].

For the compound `COc1ccc(S(=O)(=O)c2c(SC)nn(CC(=O)Nc3ccc(C)c(Cl)c3)c2N)cc1`, under setting [1], the AC50 was 15.8 µM [falling, partial curve].

Take `COc1ccc(C)cc1S(=O)(=O)Nc1ccc(F)c(Cl)c1`: the concentration at half-maximal activity (AC50) under setting [1] was 20 µM [falling, partial curve].

For the compound `CCOC(=O)c1[nH]c2ccccc2c1NC(=O)c1cc(OC)cc(OC)c1`, the AC50 under setting [1] was 15.8 µM [falling, partial curve].

On to `Cn1ccnc1SCC(=O)Nc1ccc2ccccc2c1`, for which the AC50 under setting [1] is 7.94 µM [falling, partial curve].

On to `COc1ccc(S(=O)(=O)N2CCN(CC(=O)Nc3ccc(F)c(F)c3)CC2)cc1`, for which, under setting [1], the half-maximal activity concentration (AC50) was 15.8 µM [falling, partial curve].

For the compound `N#CC1=C(SCc2ccccc2)NC(=O)CC1c1ccco1` (stereo not given), the concentration at half-maximal activity (AC50) under setting [1] was 5.01 µM [falling, partial curve].

As to `CCCOc1ccc(Cn2cnc3ccccc32)cc1`, the half-maximal activity concentration (AC50) under setting [1] was 12.6 µM [falling, partial curve].

Regarding `CN=c1scc(C)n1/N=C/c1ccc(O)cc1O`, the half-maximal activity concentration (AC50) under setting [1] was 10 µM [falling, partial curve].

Turning to `Cc1ccc(CN(C(=O)c2ccc(F)cc2)c2ccccn2)o1`, the AC50 under setting [1] was 7.94 µM [falling, single point].

With `Cc1ccc(CNc2nc3c(c(=O)n(C)c(=O)n3C)n2Cc2ccc(Cl)cc2)cc1`, under setting [1], the AC50 was 39.8 µM [falling, single point].

In the case of `CCn1c(=O)n(-c2ccc(F)c(Cl)c2)c(=O)c2sc3ccccc3c21`, the AC50 under setting [1] was 0.631 µM [rising, full curve].

Take `COc1ccc2c(c1)c(CC(=O)Nc1cccc(F)c1C)c(C)n2C(=O)c1ccc(Cl)cc1`: the AC50 under setting [1] was 5.01 µM [falling, full curve].

For `COc1cccc(-n2ccn(CC(=O)Nc3ccccc3F)c(=O)c2=O)c1`, the concentration at half-maximal activity (AC50) under setting [1] was 20 µM [falling, single point].

Take `Cc1ccc(-c2nc(C#N)c(NCc3cccc4c3OCO4)o2)cc1`: the concentration at half-maximal activity (AC50) under setting [1] was 31.6 µM [rising, partial curve] [measured here: IkB-luc green channel].

Take `Cc1ccc(CNS(=O)(=O)c2cc(C(=O)Nc3ccc(C(C)C)cc3)ccc2F)cc1`: under setting [1], the concentration at half-maximal activity (AC50) was 25.1 µM [falling, partial curve].

In the case of `CCN(CC)c1ccc(NC(=O)c2ccccc2F)cc1`, under setting [1], the AC50 was 12.6 µM [falling, partial curve].

For `Cc1c(CNC2CCC(C)CC2)c(C(=O)O)c(C)n1Cc1ccc(Cl)cc1` (stereo not given), under setting [1], the AC50 is 25.1 µM [falling, single point].

As to `Cn1cccc1C(C(=O)NC1CCCCC1)N(C(=O)Cc1cccs1)c1ccc2c(c1)OCCO2` (stereo not given), the concentration at half-maximal activity (AC50) under setting [1] is 20 µM [falling, partial curve, poor fit].

Regarding `CCOC(=O)C(CC)Sc1ncnc2c1c(-c1ccccc1)cn2-c1ccc(OC)cc1` (stereo not given), the AC50 under setting [1] was 0.1 µM [falling, full curve, poor fit].

`O=C(NCCc1ccc(F)cc1)C(=O)NCC(c1cccs1)S(=O)(=O)c1ccc(Cl)cc1` (stereo not given): the concentration at half-maximal activity (AC50) under setting [1] is 15.8 µM [falling, partial curve].

Turning to `O=C(CSc1nnc(-c2ccccc2)c(-c2ccccc2)n1)NCCc1ccccc1`, under setting [1], the half-maximal activity concentration (AC50) is 31.6 µM [falling, partial curve].

Take `Cc1ccc(C)c(N(C)C(=O)c2cc3c(s2)-c2ccccc2OC3)c1`: the AC50 under setting [1] was 20 µM [falling, partial curve, poor fit].

Take `CCn1c(=O)c2cc(C(=O)NCc3ccc(F)cc3Cl)sc2c2ccccc21`: under setting [1], the AC50 is 39.8 µM [rising, single point].

For the compound `Cc1cc(C)c(OCC(=O)N(Cc2ccc(N(C)C)cc2)CC2CCCO2)c(C)c1` (stereo not given), under setting [1], the concentration at half-maximal activity (AC50) was 25.1 µM [falling, partial curve].

On to `Cc1cc(=O)n(CC(=O)N2CCCc3ccccc32)c2c1c(C)nn2-c1cccc(F)c1`, for which, under setting [1], the concentration at half-maximal activity (AC50) was 20 µM [falling, partial curve].

On to `COc1ccc(N(Cc2cc(=O)[nH]c3ccccc23)C(=O)c2ccco2)cc1`, for which the half-maximal activity concentration (AC50) under setting [1] is 12.6 µM [falling, partial curve].

For the compound `CCCc1[nH]nc2c1C(c1ccccc1OC)C(C#N)=C(N)O2` (stereo not given), the AC50 by setting is: under setting [2], 31.6 µM [rising, single point]; under setting [3], 25.1 µM [falling, partial curve].

With `CC(Sc1nnnn1-c1ccccc1)C(=O)Nc1ccc(Cl)cn1` (stereo not given), under setting [1], the AC50 is 15.8 µM [falling, partial curve].

With `COc1cccc(N2C(=O)C(CC(=O)Nc3ccccc3)N(CCc3sccc3C)C2=O)c1` (stereo not given), under setting [1], the half-maximal activity concentration (AC50) is 39.8 µM [falling, single point].

In the case of `CCc1ccccc1NC(=O)CN1C(=O)C2CCCN2c2ccc(S(=O)(=O)N(CC)CC)cc21` (stereo not given), the AC50 under setting [1] is 25.1 µM [falling, partial curve].

As for `Cc1cccc(C)c1NC(=O)Cn1cc(C(=O)c2ccco2)c2ccccc21`, the AC50 under setting [1] is 39.8 µM [falling, single point].

Consider `CCc1nc(Nc2ccc(F)c(Cl)c2)c2c3c(sc2n1)CCCC3`, for which the AC50 under setting [1] was 25.1 µM [falling, partial curve].

Consider `CC(NC(=O)c1ccco1)C(c1cccs1)N1CCN(c2ccc(F)cc2)CC1` (stereo not given), for which, under setting [1], the AC50 is 15.8 µM [falling, partial curve].

As for `Cc1ccc2oc(-c3ccc(Cl)cc3)c(O)c(=O)c2c1`, the concentration at half-maximal activity (AC50) is, setting by setting: under setting [2], 3.98 µM [rising, full curve]; under setting [3], 3.98 µM [rising, full curve].

Take `Cc1cc(C)n(-c2ccc(C(=O)Nc3ccc(S(=O)(=O)NCc4ccco4)cc3)cc2)n1`: the AC50 under setting [1] is 15.8 µM [falling, partial curve].

As to `Cc1cc(O)c(C(c2ccccc2)N2CCN(c3ccccc3)CC2)c(=O)n1Cc1ccco1` (stereo not given), the AC50 under setting [1] was 39.8 µM [falling, single point].

Regarding `CCCN(C(=O)Cc1nc(-c2ccc(OC)cc2)no1)c1ccccc1C`, the half-maximal activity concentration (AC50) under setting [1] was 20 µM [falling, partial curve].

Consider `CCc1cccc(C)c1NC(=O)CCCn1c(C)c2cnn(-c3ccccc3)c(=O)c2c1C`, for which the AC50 under setting [1] is 0.794 µM [falling, full curve].

As to `CCOC(=O)c1[nH]c(C)c(CCC(=O)Nc2ccccc2OCC)c1C`, under setting [1], the AC50 was 20 µM [falling, partial curve, poor fit].

For the compound `Cn1c(=O)c2c(nc(NCCCCO)n2Cc2ccccc2Cl)n(C)c1=O`, under setting [1], the AC50 is 5.01 µM [rising, single point].

Turning to `COc1ccc(C(=O)Nc2nnc(SCc3cc(=O)c4cccc(F)c4[nH]3)s2)cc1`, under setting [1], the concentration at half-maximal activity (AC50) is 31.6 µM [falling, single point].

As to `Cc1ccc2c(=O)cc(C(=O)Nc3ccc(S(=O)(=O)N4CCCCC4C)cc3)oc2c1C` (stereo not given), the AC50 under setting [1] was 31.6 µM [falling, single point].

On to `O=C(CSc1nc2ccccc2s1)NC(=O)NCc1ccco1`, for which the half-maximal activity concentration (AC50) under setting [1] was 12.6 µM [falling, partial curve].

For the compound `CCN(CC)c1ccc(NS(=O)(=O)c2cc(-c3onc(C)c3C)ccc2OC)c(C)c1`, the AC50 under setting [1] was 25.1 µM [falling, partial curve].

Take `COc1cccc(-c2nnc(SCC(=O)N(C)c3ccccc3)o2)c1`: the AC50 under setting [1] was 0.794 µM [falling, partial curve].

Take `CCn1c2ccccc2c2cc(CN3CCN(Cc4ccc(Cl)cc4)CC3)ccc21`: the AC50 under setting [1] is 20 µM [falling, partial curve].

As for `CCOC(=O)c1ccc(NC(=O)CC2C(=O)N(c3cccc(OC)c3)C(=O)N2Cc2cccnc2)cc1` (stereo not given), under setting [1], the concentration at half-maximal activity (AC50) is 20 µM [falling, partial curve, poor fit].

As to `COc1cccc(C2CC(=O)Nc3cc(OC)c(OC)c(OC)c32)c1OC(C)C` (stereo not given), under setting [1], the AC50 is 3.98 µM [rising, partial curve].

Turning to `COc1cc(CNC(=O)c2sc3ncccc3c2-n2cccc2)cc(OC)c1OC`, the AC50 under setting [1] was 15.8 µM [falling, partial curve].

Turning to `COc1ccc(NC(=O)CN2C(=O)C(C)(C)c3ccccc32)cc1Cl`, the AC50 under setting [1] was 39.8 µM [falling, single point].

`CSc1ccc(CCNC(=O)C2=C(C)C(=O)OC23CCCCC3)cc1`: the AC50 under setting [1] was 3.98 µM [falling, partial curve].

Take `COCCSc1nc2sc3c(c2c(=O)n1-c1ccccc1)CCN(C)C3`: the AC50 under setting [1] was 10 µM [falling, partial curve].

Turning to `Cc1cc(C(=O)CSc2nnc(N)s2)c(C)n1CCc1ccc(Cl)cc1`, the AC50 under setting [1] was 6.31 µM [falling, full curve].

As to `N#Cc1nc(-c2ccc(COc3ccccc3)o2)oc1NCc1cccnc1`, the concentration at half-maximal activity (AC50) under setting [1] was 39.8 µM [falling, single point].
